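Vaccinia-infected cells with a two-color viral stage reporter; Venus fluorescence read on a plate reader; the cell line is not named here; timing not stated here.
The test concentration is not given here.
Percent change in Venus reporter signal; lower (more negative) values mean stronger inhibition of that viral stage.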

Values are in %.
How 0% and 100% were set is not given here.
Common to all entries: measured here: Venus reporter, other viral stage.
This is a side read-out of the assay, for part of the compounds, not drawn at random.

{"compound": "C[C@H]1CN([C@@H](C)CO)S(=O)(=O)c2ccc(C#Cc3ccccc3)cc2O[C@H]1CN(C)C(=O)Nc1ccccc1", "activity change (Venus) (%)": "-30.34"}
{"compound": "C[C@H](CO)N1C[C@H](C)[C@H](CN(C)Cc2ccc(Cl)c(Cl)c2)Oc2c(NC(=O)c3ccc(-c4nccs4)cc3)cccc2C1=O", "activity change (Venus) (%)": "-53.36"}
{"compound": "C[C@H](CO)N1C[C@H](C)[C@H](CN(C)C(=O)Nc2ccccc2)Oc2ncc(-c3cc4ccccc4o3)cc2C1=O", "activity change (Venus) (%)": "-54.75"}
{"compound": "C[C@@H]1CN([C@@H](C)CO)C(=O)c2cc(NC(=O)Nc3ccc(C(F)(F)F)cc3)ccc2O[C@H]1CN(C)S(=O)(=O)c1ccccc1", "activity change (Venus) (%)": "-20.86"}
{"compound": "C[C@@H]1CN([C@H](C)CO)S(=O)(=O)c2ccc(C#Cc3ccccc3)cc2O[C@H]1CN(C)C(=O)Nc1ccccc1", "activity change (Venus) (%)": "-30.48"}
{"compound": "O=C(c1cccnc1)N1CC(=O)N2[C@H](CO)[C@H](c3ccc(C#CCC4CCCC4)cc3)[C@H]2C1", "activity change (Venus) (%)": "-94.64"}
{"compound": "C[C@@H]1CCCCO[C@H](CN(C)Cc2ccccc2)[C@H](C)CN([C@@H](C)CO)C(=O)c2cc(NC(=O)NC3CCCCC3)ccc2O1", "activity change (Venus) (%)": "-53.44"}
{"compound": "C[C@@H]1CN([C@@H](C)CO)C(=O)c2cc(NS(=O)(=O)c3ccc(Cl)cc3)ccc2O[C@@H](C)CCCCO[C@H]1CN(C)Cc1ccc2c(c1)OCO2", "activity change (Venus) (%)": "-50.59"}
{"compound": "COc1ccc(S(=O)(=O)Nc2ccc3c(c2)CC(=O)N([C@@H](C)CO)C[C@@H](C)[C@H](CN(C)Cc2ccc(-c4ccccc4)cc2)O3)cc1", "activity change (Venus) (%)": "-41.55"}
{"compound": "COc1cccc(-c2ccc3c(c2)O[C@H](CN(C)C(=O)C2CCC2)[C@@H](C)CN([C@H](C)CO)S3(=O)=O)c1", "activity change (Venus) (%)": "-27.89"}
{"compound": "CCCN1C[C@@H](C)[C@H](OC)CN(C)C(=O)c2ccc(NC(=O)c3ccc4c(c3)OCO4)cc2OC[C@H]1C", "activity change (Venus) (%)": "-38.37"}
{"compound": "O=C(Nc1cc(Cl)cc(Cl)c1)N[C@@H]1CC[C@H](CCNS(=O)(=O)c2cccc(F)c2)O[C@@H]1CO", "activity change (Venus) (%)": "-35.94"}
{"compound": "O=C(C[C@@H]1C[C@H]2c3cc(NC(=O)Nc4ccccc4F)ccc3O[C@H]2[C@H](CO)O1)NCc1ccc(Oc2ccccc2)cc1", "activity change (Venus) (%)": "-41.5"}
{"compound": "CCCC#Cc1ccc([C@@H]2[C@@H](CO)N3C(=O)CN(C(=O)Nc4cccc(F)c4)C[C@H]23)cc1", "activity change (Venus) (%)": "-48.18"}
{"compound": "C[C@H](CO)N1C[C@H](C)[C@H](CN(C)C(=O)Nc2ccccc2)Oc2ncc(C#Cc3ccc(F)cc3)cc2C1=O", "activity change (Venus) (%)": "-42.95"}
{"compound": "O=C(Nc1ccc2c(c1)[C@H]1C[C@H](CC(=O)N3CCc4ccccc4C3)O[C@H](CO)[C@H]1O2)Nc1ccccc1F", "activity change (Venus) (%)": "-28.09"}
{"compound": "C[C@@H]1CN([C@@H](C)CO)C(=O)Cc2cc(NS(=O)(=O)c3ccc(F)cc3)ccc2O[C@H]1CN(C)Cc1ccc2c(c1)OCO2", "activity change (Venus) (%)": "-48.25"}
{"compound": "C[C@H](CO)N1C[C@H](C)[C@@H](CN(C)Cc2ccccc2)OCCCC[C@H](C)Oc2ccc(NC(=O)Nc3ccc4c(c3)OCO4)cc2C1=O", "activity change (Venus) (%)": "-43.83"}
{"compound": "C[C@H](CO)N1C[C@H](C)[C@@H](CN(C)Cc2ccccc2)Oc2ccc(NC(=O)Cc3cn(C)c4ccccc34)cc2CC1=O", "activity change (Venus) (%)": "-39.32"}
{"compound": "C[C@@H]1CN([C@@H](C)CO)C(=O)c2cc(-c3ccccc3F)cnc2O[C@H]1CN(C)Cc1ccc(F)cc1", "activity change (Venus) (%)": "-37.62"}
{"compound": "CO[C@H]1CN(C)C(=O)c2cc(NC(=O)c3nc4ccccc4s3)ccc2OC[C@H](C)N(Cc2cccnc2)C[C@@H]1C", "activity change (Venus) (%)": "-35.63"}
{"compound": "C[C@@H]1CN([C@H](C)CO)C(=O)c2cc(NC(=O)Nc3ccc(C(F)(F)F)cc3)ccc2O[C@@H](C)CCCCO[C@H]1CN(C)Cc1ccccc1", "activity change (Venus) (%)": "-47.92"}
{"compound": "C[C@H](CO)N1C[C@H](C)[C@H](CN(C)Cc2ccc3c(c2)OCO3)Oc2ncc(-c3cccc(C(F)(F)F)c3)cc2C1=O", "activity change (Venus) (%)": "-36.06"}
{"compound": "C[C@H]1CN([C@@H](C)CO)C(=O)c2cc(/C=C/c3ccccc3)cnc2O[C@@H]1CN(C)Cc1ccccc1", "activity change (Venus) (%)": "-45.76"}
{"compound": "C[C@@H]1CCCCO[C@@H](CN(C)Cc2ccc3c(c2)OCO3)[C@@H](C)CN([C@H](C)CO)C(=O)c2cc(NS(=O)(=O)c3ccc(Cl)cc3)ccc2O1", "activity change (Venus) (%)": "-34.77"}
{"compound": "C[C@@H]1CN([C@H](C)CO)S(=O)(=O)c2ccc(C#Cc3cccc(F)c3)cc2O[C@@H]1CN(C)S(=O)(=O)c1cn(C)cn1", "activity change (Venus) (%)": "-68.33"}
{"compound": "Cc1ccc(S(=O)(=O)Nc2ccc3c(c2)C(=O)N([C@@H](C)CO)C[C@@H](C)[C@@H](CN(C)C(=O)C2CCCCC2)OCCCC[C@@H](C)O3)cc1", "activity change (Venus) (%)": "-53.31"}
{"compound": "COc1cccc(-c2ccc([C@H]3[C@@H](CO)N(C(=O)Cc4ccccc4)[C@H]3C#N)cc2)c1", "activity change (Venus) (%)": "-39.79"}

Once more, the final 3:

* C[C@@H]1CN([C@H](C)CO)S(=O)(=O)c2ccc(C#Cc3cccc(F)c3)cc2O[C@@H]1CN(C)S(=O)(=O)c1cn(C)cn1 : activity change (Venus) -68.33%
* Cc1ccc(S(=O)(=O)Nc2ccc3c(c2)C(=O)N([C@@H](C)CO)C[C@@H](C)[C@@H](CN(C)C(=O)C2CCCCC2)OCCCC[C@@H](C)O3)cc1 : activity change (Venus) -53.31%
* COc1cccc(-c2ccc([C@H]3[C@@H](CO)N(C(=O)Cc4ccccc4)[C@H]3C#N)cc2)c1 : activity change (Venus) -39.79%

Source: PubChem BioAssay AID1053133 (Broad Institute, 2014).